This note sets out measurements from patent publication US20040077828A1.

No constants are given. Whether binding was seen depends on the method and setting. Some entries that bind do so weakly or less than the wild type. Tags and fused reporters may be left off the sequences shown.

For this test, the target named is T1, human sFRP-Δ3-M/H (Δ3 derivative of sFRP-1) (human).
T1 sequence: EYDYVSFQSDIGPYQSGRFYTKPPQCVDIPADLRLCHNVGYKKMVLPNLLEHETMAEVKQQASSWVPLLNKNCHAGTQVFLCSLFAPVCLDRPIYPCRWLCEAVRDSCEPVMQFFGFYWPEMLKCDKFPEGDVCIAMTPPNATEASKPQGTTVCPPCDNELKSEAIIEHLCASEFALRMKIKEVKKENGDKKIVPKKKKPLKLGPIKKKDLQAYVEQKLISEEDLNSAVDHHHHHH
The test is described as follows: ELISA with sFRP-1 deletion mutants.

For QGTLVDGRWLQL (peptide, not shown: large carriers) [A-C2/alkaline phosphatase fusion protein], the binding result is on record as “binds”.
